Experimental data: patent US7288256B1, “T cell epitopes of the major allergens from dermatophagoides (house dust mite)” (Merck Patent GmbH, priority 1991, dated 2007)
Part of at least one peptide drawing is inferred or uncertain, most often the ends. Some compounds share one wording; it may come from a single statement. Some results were stated once for a whole list of compounds, not compound by compound. Residues, ends and D or L forms follow the SMILES beside them.

Key:
[1] = system: PBMC from mite-allergic patient; experiment: Primary PBMC proliferation (3H-thymidine) to Der p I/Der p II proteins and peptides, Example IV; type: cell-based, human; details: for CPM ± S.D.: 7 days culture; for S.I.: CPM with antigen / CPM medium only; for S.I. with which this patient responds: text summary of Table I
Description: Peripheral blood mononuclear cells (PBMC) were purified by Ficoll-Hypaque centrifugation of a peripheral blood specimen from mite-allergic patient and were assayed for proliferation in response to various antigens, i.e., affinity-purified Der p I, affinity purified […], various Der p I and Der p II peptides. For assay, 5×10^4 PBMC were cultured in triplicate microwells for 7 days at 37° C. in the presence of various concentrations of antigen in 200 μl RPMI-1640 containing 5% human AB serum. Each well then received 1 μCi tritiated thymidine for 16 hours. The counts incorporated were collected onto glass fiber filters and processed for liquid scintillation counting. […] The CPM+/− standard deviation are shown. The stimulation index of each response (S.I.) is the ratio of the ^3H-thymidine CPM incorporated by the cells in response to antigen divided by the ^3H-thymidine CPM incorporated by cells in medium only. […] Thus, these peptides contain Der p I or Der p II T cell epitopes recognized by T cells from this particular allergic patient.

[2] = system: Der p I primed T cell lines; experiment: Secondary T cell proliferation assay, T cell lines primed in vitro with Der p I (Examples V, VII, XI, XII); type: cell-based, human
[3] = system: Der f I primed T cell lines; experiment: Secondary T cell proliferation assay, T cell lines primed in vitro with Der f I (Examples VI, VII, XI); type: cell-based, human
[4] = system: Der f II primed T cell lines; experiment: Secondary T cell proliferation assay, T cell lines primed in vitro with Der f II (Examples IX, X, XI); type: cell-based, human; details: patient 384; primed with purified recombinant Der f II; data not shown
[5] = system: Der p II primed T cell lines; experiment: Secondary T cell proliferation assay, T cell lines primed in vitro with Der p II (Examples VIII, X, XI, XII); details: for T cell reactivity of overlapping Der p II peptides: FIG. 9; for response of this patient to Der p II peptides: patient 348, primed with 20 μg/ml purified native Der p II; for response of this patient to Der p II peptides / T-cell reactivity (in words): data not shown; for T-cell reactivity (in words): Der p II T-cell map and analogs of parent peptide DpII-22

CC[C@H](C)[C@H](N)C(=O)N[C@@H](CCCCN)C(=O)N[C@@H](CC(=O)O)C(=O)N[C@@H](CC(C)C)C(=O)N[C@@H](CC(=O)O)C(=O)N[C@@H](C)C(=O)N[C@@H](Cc1ccccc1)C(=O)N[C@@H](CCCNC(=N)N)C(=O)N[C@@H](Cc1c[nH]cn1)C(=O)N[C@@H](Cc1ccc(O)cc1)C(=O)N[C@@H](CC(=O)O)C(=O)NCC(=O)N[C@H](C(=O)N[C@@H](CCCNC(=N)N)C(=O)N[C@H](C(=O)N[C@H](C(=O)N[C@@H](CCC(N)=O)C(=O)N[C@@H](CCCNC(=N)N)C(=O)N[C@@H](CC(=O)O)C(=O)N[C@@H](CC(N)=O)C(=O)NCC(=O)N[C@@H](Cc1ccc(O)cc1)C(=O)N[C@@H](CCC(N)=O)C(=O)N1CCC[C@H]1C(=O)N[C@@H](CC(N)=O)C(=O)N[C@@H](Cc1ccc(O)cc1)C(=O)O)[C@@H](C)CC)[C@@H](C)CC)[C@@H](C)O [DP I-8] (H-IKDLDAFRHYDGTRIIQRDNGYQPNY-OH; N-terminus and C-terminus assumed)
CPM ± S.D. ([1]; antigen 10 μg/ml): 1439 ± 32 CPM | S.I. ([1]; antigen 10 μg/ml): 1.3 | CPM ± S.D. ([1]; antigen 30 μg/ml): 1045 ± 32 CPM | S.I. ([1]; antigen 30 μg/ml): 1.0 | CPM ± S.D. ([1]; antigen 100 μg/ml): 2272 ± 40 CPM | S.I. ([1]; antigen 100 μg/ml): 2.1 | S.I. with which this patient responds [1]: at least 2.0 | T cell reactivity of overlapping Der p I peptides in panel of patients ([2]; 33 positive experiments): significant regions of T cell reactivity | S.I. with which this patient responds ([2]; individual 543, primed with 20 μg/ml purified native Der p I, data not shown): at least 2.0 | response of Der f I primed T cells to Der p I peptides (cross-reactivity) ([3]; 8 positive experiments, FIG. 8): respond significantly

CC(C)C[C@H](NC(=O)[C@H](C)NC(=O)[C@H](CCC(=O)O)NC(=O)[C@H](CC(C)C)NC(=O)[C@@H](NC(=O)[C@H](Cc1ccccc1)NC(=O)[C@@H]1CCCN1C(=O)[C@H](CCCCN)NC(=O)CNC(=O)[C@H](CCCNC(=N)N)NC(=O)[C@@H](N)Cc1c[nH]cn1)[C@@H](C)O)C(=O)N[C@@H](Cc1ccccc1)C(=O)N[C@@H](CC(=O)O)C(=O)N[C@@H](C)C(=O)N[C@@H](CC(N)=O)C(=O)N[C@@H](CCC(N)=O)C(=O)N[C@@H](CC(N)=O)C(=O)N[C@H](C(=O)N[C@@H](CCCCN)C(=O)O)[C@@H](C)O [DF II-3.1] (H-HRGKPFTLEALFDANQNTK-OH; N-terminus and C-terminus assumed)
response of T cells from this patient to Der f II peptides [4]: respond well

CC[C@H](C)[C@H](NC(=O)[C@H](C)NC(=O)[C@H](CS)NC(=O)[C@H](C)NC(=O)[C@H](CC(C)C)NC(=O)[C@@H](NC(=O)CNC(=O)[C@H](CC(=O)O)NC(=O)[C@H](CC(=O)O)NC(=O)CNC(=O)[C@H](CCSC)NC(=O)[C@@H](NC(=O)[C@H](CCCCN)NC(=O)[C@@H](NC(=O)[C@@H](NC(=O)[C@@H](NC(=O)[C@@H](N)C(C)C)C(C)C)[C@@H](C)O)C(C)C)C(C)C)C(C)C)C(=O)N[C@@H](C)C(=O)N[C@H](C(=O)N[C@@H](Cc1c[nH]cn1)C(=O)N[C@@H](C)C(=O)N[C@@H](CCCCN)C(=O)N[C@H](C(=O)N[C@@H](CCCNC(=N)N)C(=O)N[C@@H](CC(=O)O)C(=O)O)[C@@H](C)CC)[C@@H](C)O [DP II-9] (H-VVTVKVMGDDGVLACAIATHAKIRD-OH; N-terminus and C-terminus assumed)
CPM ± S.D. ([1]; antigen 10 μg/ml): 3970 ± 87 CPM | S.I. ([1]; antigen 10 μg/ml): 3.7 | CPM ± S.D. ([1]; antigen 30 μg/ml): 4464 ± 86 CPM | S.I. ([1]; antigen 30 μg/ml): 4.2 | CPM ± S.D. ([1]; antigen 100 μg/ml): 2237 ± 53 CPM | S.I. ([1]; antigen 100 μg/ml): 2.1 | S.I. with which this patient responds [1]: at least 2.0 | T cell reactivity of overlapping Der p II peptides ([5]; 26 positive experiments): significant T cell reactivity | response of this patient to Der p II peptides [5]: responds well

CC[C@H](C)[C@H](NC(=O)[C@H](CCCCN)NC(=O)[C@@H]1CCCN1C(=O)[C@@H](NC(=O)[C@H](CC(N)=O)NC(=O)[C@H](Cc1c[nH]c2ccccc12)NC(=O)[C@@H](NC(=O)[C@H](Cc1ccc(O)cc1)NC(=O)[C@H](CCCCN)NC(=O)[C@@H](NC(=O)[C@@H](N)CC(=O)O)[C@@H](C)CC)[C@@H](C)O)C(C)C)C(=O)N[C@@H](C)C(=O)N1CCC[C@H]1C(=O)N[C@@H](CCCCN)C(=O)N[C@@H](CO)C(=O)N[C@@H](CCC(=O)O)C(=O)N[C@@H](CC(N)=O)C(=O)N[C@H](C(=O)N[C@H](C(=O)N[C@H](C(=O)N[C@H](C(=O)N[C@H](C(=O)N[C@@H](CCCCN)C(=O)N[C@H](C(=O)N[C@@H](CCSC)C(=O)NCC(=O)O)C(C)C)C(C)C)[C@@H](C)O)C(C)C)C(C)C)C(C)C [DP II-8] (H-DIKYTWNVPKIAPKSENVVVTVKVMG-OH; N-terminus and C-terminus assumed)
T cell reactivity of overlapping Der p II peptides ([5]; 26 positive experiments): significant T cell reactivity | response of this patient to Der p II peptides [5]: responds well

CC[C@H](C)[C@H](NC(=O)CNC(=O)[C@@H]1CCCN1C(=O)[C@@H](NC(=O)[C@H](CC(=O)O)NC(=O)[C@@H](NC(=O)[C@H](CCC(=O)O)NC(=O)[C@H](CC(C)C)NC(=O)CNC(=O)[C@H](CC(=O)O)NC(=O)[C@@H](NC(=O)[C@H](CO)NC(=O)[C@H](C)NC(=O)[C@H](CCCCN)NC(=O)[C@@H](NC(=O)[C@H](CCC(=O)O)NC(=O)[C@@H](NC(=O)[C@@H](N)CCCCN)[C@@H](C)CC)[C@@H](C)CC)[C@@H](C)CC)C(C)C)C(C)C)C(=O)N[C@@H](CC(=O)O)C(=O)N1CCC[C@H]1C(=O)N[C@@H](CC(N)=O)C(=O)N[C@@H](C)C(=O)N[C@@H](CS)C(=O)N[C@@H](Cc1c[nH]cn1)C(=O)N[C@@H](Cc1ccc(O)cc1)C(=O)N[C@@H](CCSC)C(=O)N[C@@H](CCCCN)C(=O)O [DP II-5] (H-KIEIKASIDGLEVDVPGIDPNACHYMK-OH; N-terminus and C-terminus assumed)
T-cell reactivity (in words) [5]: high T-cell reactivity

CC[C@H](C)[C@H](NC(=O)[C@H](CCCNC(=N)N)NC(=O)[C@H](CS)NC(=O)[C@H](C)NC(=O)[C@H](CO)NC(=O)[C@@H](N)[C@@H](C)O)C(=O)N[C@@H](CC(N)=O)C(=O)N[C@@H](CO)C(=O)N[C@H](C(=O)N[C@@H](CC(N)=O)C(=O)N[C@H](C(=O)N1CCC[C@H]1C(=O)N[C@@H](CO)C(=O)N[C@@H](CCC(=O)O)C(=O)N[C@@H](CC(C)C)C(=O)N[C@@H](CC(=O)O)C(=O)N[C@@H](CC(C)C)C(=O)N[C@@H](CCCNC(=N)N)C(=O)N[C@@H](CO)C(=O)N[C@@H](CC(C)C)C(=O)N[C@@H](CCCNC(=N)N)C(=O)O)C(C)C)C(C)C [DF I-1] (H-TSACRINSVNVPSELDLRSLR-OH; N-terminus and C-terminus assumed)
response of Der p I primed T cells to Der f I peptides (cross-reactivity) ([2]; 14 positive experiments, FIG. 7): respond significantly | T cell reactivity of overlapping Der f I peptides ([3]; 16 positive experiments, FIG. 6): significant areas of T cell reactivity | response of T cells from this patient to Der f I peptides ([3]; patient 783, primed with recombinant Der f I 20 μg/ml, data not shown): respond

CC[C@H](C)[C@H](NC(=O)[C@H](CCC(=O)O)NC(=O)[C@@H](NC(=O)[C@H](CCCCN)NC(=O)[C@H](C)NC(=O)[C@@H](NC(=O)[C@H](CCCCN)NC(=O)[C@@H](NC(=O)[C@H](CC(N)=O)NC(=O)[C@H](CCC(N)=O)NC(=O)[C@H](CC(N)=O)NC(=O)[C@H](C)NC(=O)[C@H](CCC(=O)O)NC(=O)[C@H](Cc1ccccc1)NC(=O)[C@@H](NC(=O)[C@H](C)NC(=O)[C@H](CCC(=O)O)NC(=O)[C@H](CC(C)C)NC(=O)[C@H](CCC(N)=O)NC(=O)[C@H](CCCCN)NC(=O)[C@@H](N)CC(=O)O)C(C)C)[C@@H](C)O)[C@@H](C)O)[C@@H](C)CC)C(=O)N[C@@H](CCCCN)C(=O)N[C@@H](C)C(=O)N[C@@H](CO)C(=O)N[C@H](C(=O)N[C@@H](CC(=O)O)C(=O)N[C@@H](CCC(=O)O)C(=O)O)[C@@H](C)CC [DP II-22.5] (H-DKQLEAVFEANQNTKTAKIEIKASIDE-OH; N-terminus and C-terminus assumed)
T-cell reactivity (in words) [5]: retained the T-cell reactivity

CC[C@H](C)[C@H](NC(=O)[C@H](CCCCN)NC(=O)[C@@H]1CCCN1C(=O)[C@@H](NC(=O)[C@H](CC(N)=O)NC(=O)[C@H](Cc1c[nH]c2ccccc12)NC(=O)[C@@H](NC(=O)[C@H](Cc1ccc(O)cc1)NC(=O)[C@H](CCCCN)NC(=O)[C@H](C)NC(=O)[C@@H](N)CC(=O)O)[C@@H](C)O)C(C)C)C(=O)N[C@@H](C)C(=O)N1CCC[C@H]1C(=O)N[C@@H](CCCCN)C(=O)N[C@@H](CO)C(=O)N[C@@H](CCC(=O)O)C(=O)N[C@@H](CC(N)=O)C(=O)N[C@H](C(=O)N[C@H](C(=O)N[C@H](C(=O)N[C@H](C(=O)N[C@H](C(=O)N[C@@H](CCCCN)C(=O)N[C@@H](CC(C)C)C(=O)N[C@H](C(=O)NCC(=O)O)C(C)C)C(C)C)[C@@H](C)O)C(C)C)C(C)C)C(C)C [DF II-18] (H-DAKYTWNVPKIAPKSENVVVTVKLVG-OH; N-terminus and C-terminus assumed)
response of Der p II primed T cells to Der f II peptides (cross-reactivity) ([5]; 26 positive experiments, FIG. 12): respond significantly
